A weaker result is weaker than the reference pair of the same experiment.
Legend:
Test in all cases: EMSA
[1] = molecular target: HsRad52(1-212) H69A (Homo sapiens) (UniProt P43351); conditions: lost most of ssDNA binding; 1 mM MgCl2, 37 C; purified recombinant protein; label: 5'-32P; single-stranded DNA
[2] = molecular target: HsRad52(1-212) K169A (Homo sapiens) (UniProt P43351); conditions: lowered versus wild type; 1 mM MgCl2, 37 C; purified recombinant protein; label: 5'-32P; single-stranded DNA
[3] = molecular target: HsRad52(1-212) R153A (Homo sapiens) (UniProt P43351); conditions: lowered versus wild type; 1 mM MgCl2, 37 C; purified recombinant protein; label: 5'-32P; single-stranded DNA
[4] = molecular target: HsRad52(1-212) R55A (Homo sapiens) (UniProt P43351); conditions: lost most of ssDNA binding; 1 mM MgCl2, 37 C; purified recombinant protein; label: 5'-32P; single-stranded DNA
[5] = molecular target: HsRad52(1-212) R70A (Homo sapiens) (UniProt P43351); conditions: lost most of ssDNA binding; 1 mM MgCl2, 37 C; purified recombinant protein; label: 5'-32P; single-stranded DNA
[6] = molecular target: HsRad52(1-212) Y65A (Homo sapiens) (UniProt P43351); conditions: lost most of ssDNA binding; 1 mM MgCl2, 37 C; purified recombinant protein; label: 5'-32P; single-stranded DNA

By UniProt entry, the sequences of proteins in these tests, tags left out. Residues count along the entry.
UniProt P43351, 1-212 H69A: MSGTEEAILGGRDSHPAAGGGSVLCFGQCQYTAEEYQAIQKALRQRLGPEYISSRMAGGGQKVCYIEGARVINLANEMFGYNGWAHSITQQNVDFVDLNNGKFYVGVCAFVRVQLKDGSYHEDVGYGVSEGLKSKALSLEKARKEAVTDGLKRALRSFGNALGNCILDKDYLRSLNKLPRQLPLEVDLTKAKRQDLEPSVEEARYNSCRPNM
UniProt P43351, 1-212 K169A: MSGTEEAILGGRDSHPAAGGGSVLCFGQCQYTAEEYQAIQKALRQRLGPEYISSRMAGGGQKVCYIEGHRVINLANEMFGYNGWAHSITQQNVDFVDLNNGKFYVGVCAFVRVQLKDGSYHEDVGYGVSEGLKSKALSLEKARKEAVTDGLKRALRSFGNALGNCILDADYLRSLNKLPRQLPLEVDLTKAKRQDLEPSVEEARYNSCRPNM
UniProt P43351, 1-212 R153A: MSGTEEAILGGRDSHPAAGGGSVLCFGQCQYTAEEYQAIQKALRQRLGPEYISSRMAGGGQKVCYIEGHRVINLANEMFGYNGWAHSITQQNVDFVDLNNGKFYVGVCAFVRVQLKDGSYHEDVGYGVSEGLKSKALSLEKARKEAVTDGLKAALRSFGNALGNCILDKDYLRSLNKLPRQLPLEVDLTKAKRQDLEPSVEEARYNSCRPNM
UniProt P43351, 1-212 R55A: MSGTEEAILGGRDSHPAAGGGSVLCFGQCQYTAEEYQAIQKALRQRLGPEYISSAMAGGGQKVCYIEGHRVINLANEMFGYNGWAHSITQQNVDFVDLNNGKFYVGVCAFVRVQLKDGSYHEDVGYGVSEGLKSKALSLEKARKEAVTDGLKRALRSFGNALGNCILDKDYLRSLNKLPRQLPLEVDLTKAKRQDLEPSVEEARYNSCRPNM
UniProt P43351, 1-212 R70A: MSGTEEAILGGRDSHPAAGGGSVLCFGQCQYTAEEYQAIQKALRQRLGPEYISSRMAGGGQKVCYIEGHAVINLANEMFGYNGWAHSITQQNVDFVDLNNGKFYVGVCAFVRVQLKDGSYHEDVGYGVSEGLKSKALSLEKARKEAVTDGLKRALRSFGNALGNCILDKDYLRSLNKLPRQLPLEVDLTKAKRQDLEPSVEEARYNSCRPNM
UniProt P43351, 1-212 Y65A: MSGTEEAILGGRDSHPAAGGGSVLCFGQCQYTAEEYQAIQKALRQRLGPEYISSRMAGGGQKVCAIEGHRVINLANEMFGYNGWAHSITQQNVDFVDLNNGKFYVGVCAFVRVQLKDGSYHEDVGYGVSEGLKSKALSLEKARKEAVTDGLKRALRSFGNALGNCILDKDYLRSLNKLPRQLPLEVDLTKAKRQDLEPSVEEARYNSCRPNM

Measured: binding result

ATTTCATGCTAGACAGAAGAATTCTCAGTAACTTCTTTGTGCTGTGTGTA [SAT-1 50-mer]
binds more weakly: all assays above
